The text below walks through data of the supplement of paper PMC12889115.

The list shows a part of the results. These are raw signals, not scaled to a control.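 Primary screen: polymyxin B was added at a level permeabilizing Salmonella outer membranes while sparing inner membranes. DMSO wells, both with and without polymyxin B, established maximum growth. Plate-to-plate variation meant each plate was ranked on its own, and the lowest-OD600 compounds were selected as hits.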

The experiment relates to Salmonella enterica serovar Typhimurium SL1344. The experiment in a line: bacterial growth OD600 after 18 h with compound and polymyxin B; higher = more bacterial growth (less inhibition). Conditions: 50 µM, Mueller-Hinton broth.

Turning to `CC(=O)c1cccc(OCc2cc(C(=O)N(C)Cc3c(C)n[nH]c3C)n[nH]2)c1`, the “bacterial growth OD600” value (polymyxin B 1 µg/mL) amounted to 1.03.

Take `CC(C)(O)C#Cc1ccc(CNC2COc3ccccc3C2)cc1` (stereo not given): where the note is “polymyxin B 0.75 µg/mL”, the “bacterial growth OD600” value amounted to 0.51.

For the compound `CN(CCc1ccccn1)[C@@H]1CCN(Cc2ccc3c(c2)CC(C)(C)O3)C[C@H]1O`, the “bacterial growth OD600” value (polymyxin B 0.75 µg/mL) stood at 0.866.

With `CCOC(=O)C1(C/C=C/c2ccccc2)CCCN(Cc2ccncc2)C1` (stereo not given), the “bacterial growth OD600” value (polymyxin B 0.75 µg/mL) turned out to be 0.005.

On to `OCC1(Cc2ccc(Cl)cc2)CCN(CCCc2ccccc2)CC1`, for which the “bacterial growth OD600” value (polymyxin B 0.75 µg/mL) was found to be 0.587.

As for `CC(C)Cn1cc(C(=O)NC(C)c2ccc(Cl)cc2)c(=O)c(C(=O)N2CCCCCC2)c1` (stereo not given), the “bacterial growth OD600” value (polymyxin B 0.75 µg/mL) worked out at 0.734.

Regarding `COCc1ccc(CN2CCOc3ccc(C(O)Cc4ccccc4)cc3C2)o1` (stereo not given), the “bacterial growth OD600” value (polymyxin B 0.75 µg/mL) stood at 0.794.

For `CC(C)c1csc(CN2CCC(CO)(CCCc3ccccc3)CC2)n1`, the “bacterial growth OD600” value (polymyxin B 1 µg/mL) amounted to 0.581.

Take `Cc1cc(C)n(CCNc2nncc(-c3ccccc3F)n2)n1`: under “polymyxin B 1 µg/mL”, the “bacterial growth OD600” value turned out to be 0.824.

As to `COc1ccc(CN2CCN(C3CCCC3)CC2CCO)cc1C` (stereo not given), the “bacterial growth OD600” value (polymyxin B 1 µg/mL) was 0.922.

Take `O=C(Nc1ccnn1C1CCN(Cc2c[nH]c3ccccc23)CC1)C1CCCC1`: the “bacterial growth OD600” value (polymyxin B 0.75 µg/mL) is 1.02.

As to `COc1ccc(C(CC(=O)NCc2nc(C)cs2)c2ccccc2)cc1` (stereo not given), the “bacterial growth OD600” value (polymyxin B 1 µg/mL) is 0.824.

Regarding `O=C(Nc1cccc(N2CCC(NCCC(c3ccc(F)cc3)c3ccco3)CC2)c1)c1ccncc1` (stereo not given), for the setting “polymyxin B 0.75 µg/mL”, the “bacterial growth OD600” value amounted to 0.672.

As to `Cc1nc2ccccc2n1Cc1cc(C(=O)N2CCN(c3cnccn3)CC2)n[nH]1`, where the note is “polymyxin B 1 µg/mL”, the “bacterial growth OD600” value was 0.871.

In the case of `CCOC(=O)C1(CC2CC2)CCN(C(=O)CSc2nc3cc(C)ccc3[nH]2)CC1`, under “polymyxin B 1 µg/mL”, the “bacterial growth OD600” value was found to be 0.027.

`CO[C@H]1[C@H](NC(=O)Cc2cccs2)c2ccccc2C12CCN(CC#Cc1ccccc1)CC2`: the “bacterial growth OD600” value (polymyxin B 0.75 µg/mL) came to 0.756.

On to `COc1cccc(CN2CCC(C(Cc3ccccc3F)N(C)C(=O)c3ccoc3C)CC2)c1OC` (stereo not given), for which the “bacterial growth OD600” value (polymyxin B 0.75 µg/mL) came to 0.724.

Take `Cc1nc(CN(C)CC2(O)CCCN(CC3CCCCC3)C2=O)cs1` (stereo not given): the “bacterial growth OD600” value (polymyxin B 1 µg/mL) was 1.01.

On to `Cc1ccc(CN(C)C(=O)CC2C(=O)NCCN2Cc2cccc(F)c2)o1` (stereo not given), for which, where the note is “polymyxin B 1 µg/mL”, the “bacterial growth OD600” value worked out at 0.919.

On to `Cc1c(-c2ccc(F)cc2)[nH]c2ccc(CNC(=O)CCN3CCCO3)cc12`, for which the “bacterial growth OD600” value (polymyxin B 1 µg/mL) amounted to 0.733.

In the case of `O=C(c1csnn1)N1CCc2ccc(NC(=O)C3(c4ccccc4)CC3)cc2C1`, the “bacterial growth OD600” value (polymyxin B 1 µg/mL) was determined as 1.23.

For `COc1ccc(CN2CCN(Cc3ccccc3F)CC2CCO)cc1C` (stereo not given), for the setting “polymyxin B 1 µg/mL”, the “bacterial growth OD600” value turned out to be 0.917.

Take `O=C(CCc1ccncc1)N1CCCC(CCc2cccc(F)c2)C1` (stereo not given): the “bacterial growth OD600” value (polymyxin B 0.75 µg/mL) stood at 0.006.

For the compound `Cc1ncc2c(c1CNC(=O)c1ccsc1)CCN(C(=O)c1ccc(N3CCCCC3)cc1)C2`, the “bacterial growth OD600” value (polymyxin B 0.75 µg/mL) turned out to be 0.732.

For `COc1cc(C(=O)NCC(C)(C)CN(C)C)ccc1OC1CCN(C(C)=O)CC1`, the “bacterial growth OD600” value (polymyxin B 1 µg/mL) was 1.25.

On to `Cc1nc(CN(C)C(=O)C2CCC(=O)N(CCc3ccccn3)C2)cs1` (stereo not given), for which the “bacterial growth OD600” value (polymyxin B 1 µg/mL) is 1.28.

As to `COC(C(=O)NCc1c(C)ncc2c1CCN(C(=O)c1cc3ccccc3o1)C2)c1ccccc1` (stereo not given), where the note is “polymyxin B 0.75 µg/mL”, the “bacterial growth OD600” value was 0.775.

Consider `CCN1CCCCC1C(=O)NCc1nc(-c2ccccc2NS(=O)(=O)Cc2ccccc2)oc1C` (stereo not given), for which the “bacterial growth OD600” value (polymyxin B 0.75 µg/mL) came to 0.735.

On to `COc1ccc(-c2nc(CN(Cc3ccccc3)CC3CC3)c(C)o2)cc1OC`, for which the “bacterial growth OD600” value (polymyxin B 1 µg/mL) stood at 0.757.

Turning to `COC(=O)C1CCN(Cc2cn(-c3ccccc3)nc2-c2cccc(OC)c2)CC1`, the “bacterial growth OD600” value (polymyxin B 1 µg/mL) was 0.868.
